Hit rate of the full screen: of about 31,000 sequences, about 1,400 (4.5%) were called active.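 Rule for the calls: active = median seed-adjusted z-score above 1 or below -1; inactive = the rest.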 The list shows a part of the results.

The values below come from PubChem BioAssay AID1347426 (Functional Genomics Laboratory (NCATS/FGL), 2020).

The nature of the experiment: Novel Modifiers of Survival Motor Neuron (SMN) Protein: Gene Identification via Genome-wide siRNA Screen.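 Note: luminescence tracks full-length SMN protein made from the SMN2 reporter.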 The settings on record: HEK293T SMN2-luciferase reporter, siRNA knockdown, 72 h; actives lie on both sides. A digest of the protocol:
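Steps: spot 1 pmol siRNA, add Lipofectamine RNAiMax in serum-free DMEM, seed HEK293T SMN2–luciferase reporter cells; incubate 72 h at 37 °C; add ONE-Glo; normalize luminescence to control siRNA, log10, MAD. Candidates: |MAD| > 1.0.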
(In general: Reporter assays use an easily measured gene product as a stand-in for the process of interest.)
Turning to AGUGCACAAAUGAUAACAATT against MGAT1, the median seed-adjusted z-score is inactive: 0.138. Regarding GCUGAUGCAUUGCUCAUUATT against CCT6A, the median seed-adjusted z-score is inactive: -0.286. For the sequence GCUAGAGAUUGACCAGAAATT against NUDC, the median seed-adjusted z-score was inactive: -0.227.

Consider GCAGGAACAAGCUCGUAAATT against FSD1L, for which the median seed-adjusted z-score is inactive: 0.166. The same measure for GGCUUUAUCUUGACCAUAATT against LRRTM4: inactive: 0; for CCUUUGCCCUGUUCAAGGATT against CYP17A1: active: -1.39. Regarding GGAAAGGCUUUACCCGUAATT against ZNF227, the median seed-adjusted z-score was inactive: 0.0194. On to CAGCACCACCAAUAUCCAATT against RNASE4, for which the median seed-adjusted z-score is inactive: -0.0112.

Consider ACAACAUCGUCUUCCCAGATT against LCN12, for which the median seed-adjusted z-score is inactive: 0.124. Take CAAACUUCCUGAAUCUGAUTT against POLD3: the median seed-adjusted z-score was inactive: -0.161. The same measure for CCAGCUAUCUAUAACCUUATT against ATP6V0C: inactive: -0.389; for CGCUGAUCAUGCUACAAGATT against MAML3: inactive: -0.412. The same measure for GAAUCAGUAUAGAACAAGATT against RIOK2: inactive: -0.16; for CGACAUCCGCAUCCAGAAATT against SYN3: inactive: -0.729; for CCACGAGAUUGAUAGUAUUTT against KCNAB2: inactive: 0. The same measure for GGAUGAUCGUGACAAGUUUTT against ATP1B3: inactive: -0.225; for ACCGGAGAAUGAAAAAGAATT against HOXC12: inactive: 0.788.

As for GCACUUGUAAGAACUGGUATT against POSTN, the median seed-adjusted z-score is inactive: -0.45. Regarding GCUAAGGACUAUUUAAAUUTT against NME5, the median seed-adjusted z-score is inactive: 0.393. The same measure for GCAUUAAGCGAGUCAAGGATT against TAF5L: inactive: 0.409; for GCACUUGUAUGAUGAGGUATT against NPHS1: inactive: -0.0505. On to GGAGUAUGCUAGGCUAUGATT against WNK2, for which the median seed-adjusted z-score was inactive: 0.212. The same measure for GCAGCACGCUCUUCACCAUTT against SLC5A2: inactive: -0.0782; for GAGCUAUAAAUAAACUGAUTT against PET112L: inactive: 0.235.

Take CACCCAGUCUGUCACCAAATT against ARHGAP17: the median seed-adjusted z-score is inactive: -0.336. Regarding GGCUACUGCUCAGUUCUUATT against ZBTB24, the median seed-adjusted z-score is inactive: -0.156. For ACAUGGAAGAAGAUAAUAATT against ASCC3, the median seed-adjusted z-score is inactive: -0.192. Next, CAGUCAGGUUCAUAAGUAATT against IYD: inactive: -0.572; GAACUAAACUUGUUAAUGATT against TRIM36: inactive: -0.262; UGACCAUAAGGAAACGAUATT against ANXA10: inactive: 0.0445. As for CAUUCUAUGUUGGAUAUUATT against PLDN, the median seed-adjusted z-score was inactive: -0.164.

With UCAUCAACUGCUUCACUUUTT against ADORA2A, the median seed-adjusted z-score was inactive: 0. With GCCUCACCGUCUAUGUACATT against CD200, the median seed-adjusted z-score was inactive: -0.0135.

As to GACUGGAGAUAUCAAGGAATT against SQLE, the median seed-adjusted z-score is active: -1.14. Regarding GCCGUUUGACCAUACAUUATT against SNTB1, the median seed-adjusted z-score is inactive: 0.488. CCAUCGUGAUAUAUUUCGATT against PDE11A: the median seed-adjusted z-score was inactive: 0.

On to AGCGGUUCGUUAUCCCAUUTT against POLE3, for which the median seed-adjusted z-score was inactive: -0.0612. As to GGAUCUCAUGAAAAAGUUUTT against CBR3, the median seed-adjusted z-score was inactive: 0.057. Consider CCUUCAACAUGAACUUUAUTT against HS6ST2, for which the median seed-adjusted z-score is inactive: 0.

Turning to GCGUCGUGGUCAUGAACAATT against PIP5K1C, the median seed-adjusted z-score was inactive: -0.13. With GGAAGCCGUUAGAAGGUUATT against TAF11, the median seed-adjusted z-score was inactive: -0.848. As to GGCUCAGUAUGGACCUCAATT against ARID1B, the median seed-adjusted z-score was inactive: 0.108. On to UCAACACCGUCUACAUUUATT against SVOPL, for which the median seed-adjusted z-score is inactive: 0.439. On to AGACAUUAAUAUUGCGUGUTT against ACBD7, for which the median seed-adjusted z-score is inactive: -0.542.

As to GGAGACUCAUUGCAAGAUUTT against CNKSR2, the median seed-adjusted z-score is inactive: -0.0536. Turning to UACCUGAGCUUACAAAUUUTT against ESRRB, the median seed-adjusted z-score was inactive: -0.611. AGAUAAUCACCGCACCGUUTT against FUT6: the median seed-adjusted z-score was inactive: 0.282. The same measure for GGGCAGUCUUUGCACAUCATT against IKBKB: inactive: 0.0896; for CGAGGGAUCCUAACUCUCATT against ACTG2: inactive: 0.157. As for GACUAGCUGCUGAUAAGAATT against CKAP5, the median seed-adjusted z-score is active: -1.87. As for GUGCAUCUCUGGUAACUGUTT against TRPV3, the median seed-adjusted z-score was inactive: -0.228. For GGAAUUCGACUGGAACAUUTT against NUF2, the median seed-adjusted z-score is inactive: -0.658.

For the sequence CCAUGACAAUCAACGAGGATT against AMY2A, the median seed-adjusted z-score was inactive: -0.266. GUCAGAGACAGAUUUGAUATT against RHCE: the median seed-adjusted z-score is inactive: 0.488.

As to GGUUUUGGAAGUAAAGUUATT against PARK7, the median seed-adjusted z-score is inactive: -0.357.

As for CACUGAUUAUGGGAUAUUUTT against LYZ, the median seed-adjusted z-score is inactive: -0.0538. Regarding GAGCAAAGCUGAACGUGAATT against UST, the median seed-adjusted z-score was inactive: 0.265. GAACCAACUCGGCCUCUAUTT against HYAL3: the median seed-adjusted z-score is inactive: 0. Next, ACAUCGUCCUCAUGACUAATT against NT5C1A: inactive: -0.448. Consider GGUAUUUGAUAGCAGUUGATT against ADAL, for which the median seed-adjusted z-score was inactive: 0.145.

With GGAUGAUAGACCUACUGGATT against INO80, the median seed-adjusted z-score was inactive: 0.0546. Consider GAUCCCUGCUGUCAUCUUUTT against KCNK10, for which the median seed-adjusted z-score was inactive: 0.239. Next, GAUUAUUGAGCAUAAGAUUTT against ZNF277: inactive: -0.0374; AGAAGAACCCGAACAAAGATT against EN2: inactive: 0.319; UGAGCGAGUUGGUCAAGAUTT against MAP1LC3A: inactive: 0. Consider AAAUCGAUCAGAUCAACAATT against CDC2L1, for which the median seed-adjusted z-score is active: -1.14. Next, GAACUUGACCAGUUAGACUTT against GTF3C3: inactive: 0.21; GUGCAUGUAUGAAGCCGAATT against NDUFB10: inactive: -0.39; GAUGGAAACAUUGAAUAUATT against GTPBP2: inactive: -0.166. As for GAACUGUGCCGACUCCACATT against ATP6V0E1, the median seed-adjusted z-score is inactive: -0.0658.

Take CCUGCAGAAUUAUAUCUUATT against TXNDC13: the median seed-adjusted z-score was inactive: 0.365.

As for GCCCAUCACAAUCCAGGUATT against PLXND1, the median seed-adjusted z-score was inactive: -0.064. As for GGAUCAUUCGAAACGAGCATT against CDC25B, the median seed-adjusted z-score was inactive: -0.0158.

As for CGCCGAAUCAUGUCGAUGATT against NKX2-1, the median seed-adjusted z-score is inactive: 0.185. Take GAGUAUACUCUACAGCUAATT against IL12RB2: the median seed-adjusted z-score is inactive: 0.368.

Take CAAUGAUAUUGGUAGAAAUTT against PKIB: the median seed-adjusted z-score was inactive: 0.147. CAGCCUAUCUUUGUCCAGATT against COX10: the median seed-adjusted z-score is inactive: 0.339.

In the case of ACGAGUACAUCAACGAGUATT against ABCA2, the median seed-adjusted z-score was active: -1.18.

Turning to CAAUCACGGUUGUGGGUGATT against PRPSAP2, the median seed-adjusted z-score is inactive: 0.329. For GAAAAAGGGUUUUACUACATT against TNFSF10, the median seed-adjusted z-score was inactive: 0. The same measure for GGUAAUCUCUGGGAUGUGATT against ESPL1: inactive: 0.871; for CCCGAACCCUGGUUCUUCATT against LCK: inactive: 0.676. Turning to AGGCAUUCGUCCCUACAAATT against OVOL2, the median seed-adjusted z-score was inactive: 0.654. As for CCAGAGAGAUGGAUUGUCATT against ARNT2, the median seed-adjusted z-score is inactive: -0.244. The same measure for GGGACAAGUUCGUCAUCUUTT against CRYAA: active: -1.03. As for GGAUCACGCUAGCUGUCUATT against OXTR, the median seed-adjusted z-score is inactive: -0.557. Turning to CAGGACCAAUGGUCAAGAATT against CARD11, the median seed-adjusted z-score is inactive: 0.22. In the case of GAAAGGAUUUGAUAAUGCATT against FGD4, the median seed-adjusted z-score was inactive: -0.0017. As for GCAUUACAGUCUGAAUUGATT against PTPDC1, the median seed-adjusted z-score was inactive: -0.191. AAGCAGUGAUGUCAACUUUTT against RNASE12: the median seed-adjusted z-score was inactive: -0.16.

For the sequence GCUCCAACGGCUGAUGAAATT against GPR146, the median seed-adjusted z-score is inactive: 0.405.

For CAAGACUGCUGAUGAGUUUTT against HSD17B3, the median seed-adjusted z-score is inactive: 0.734. For the sequence CAUUGUCUAUCAUCGCAAATT against NEB, the median seed-adjusted z-score was inactive: 0.0485. As for GCCCGACUCUCUAAUGGAATT against PRKD3, the median seed-adjusted z-score is inactive: -0.906.

As to GAAAAGGUUUUGUAGAGUUTT against PSPC1, the median seed-adjusted z-score is inactive: 0.0612.

For GUUUAUUUCGUACACUAAATT against KTI12, the median seed-adjusted z-score was inactive: 0.0814. The same measure for CAGCCUUACCUGAAGGACATT against PHYHIP: inactive: 0.18; for ACGUAGGUGCUUUAAGGAUTT against SHOX2: inactive: -0.238; for GUUCGAGUCUUACUGGUCATT against ZNF790: inactive: 0.245.

With GACGAUUACUUCACAAAGATT against KCNJ16, the median seed-adjusted z-score is inactive: -0.705. Regarding AAAGAGAACUGGUAUUCAATT against EIF1AX, the median seed-adjusted z-score was inactive: 0.878. As to CGGUGAAUUUCAUGCCGAATT against SYNM, the median seed-adjusted z-score was inactive: 0.104.

Take GCAUCAUGGAUGGAUCCGATT against ENTPD5: the median seed-adjusted z-score is inactive: -0.355. Regarding CUAUGGACGCAAUCAUUUATT against ATOH7, the median seed-adjusted z-score is inactive: 0.135.

For GGACUUCUAUAACGUGAGATT against AMPD3, the median seed-adjusted z-score was inactive: -0.0865. Take AAAUAAUGGUCAAAAGAAUTT against FOXD1: the median seed-adjusted z-score was inactive: -0.659. Next, GGACAUACCUGAAGACUUUTT against SLC16A6: inactive: 0.195.
